Measured values from article PMC5648759.
No constants are given. Whether binding was seen depends on the method and setting. In cells and extracts the contact can be indirect. Some binding calls cover weakened binding; strength is not graded here. Where a sequence is shown, tags or fusion partners need not be part of it.

Sequences of proteins named here, by UniProt entry; tags and fusion partners are left off.
UniProt P05549: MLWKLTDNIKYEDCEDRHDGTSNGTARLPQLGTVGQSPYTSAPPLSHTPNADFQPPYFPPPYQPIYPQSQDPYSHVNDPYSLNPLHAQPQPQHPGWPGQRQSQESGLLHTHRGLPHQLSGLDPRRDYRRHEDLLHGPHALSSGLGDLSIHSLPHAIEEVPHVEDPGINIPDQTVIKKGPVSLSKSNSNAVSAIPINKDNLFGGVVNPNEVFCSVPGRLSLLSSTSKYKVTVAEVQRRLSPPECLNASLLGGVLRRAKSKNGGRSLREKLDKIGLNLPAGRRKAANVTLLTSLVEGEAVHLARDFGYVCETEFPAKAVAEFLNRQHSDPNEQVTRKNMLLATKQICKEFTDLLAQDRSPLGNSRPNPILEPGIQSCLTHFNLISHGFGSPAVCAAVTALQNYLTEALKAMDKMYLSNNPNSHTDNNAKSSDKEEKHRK
UniProt P43268: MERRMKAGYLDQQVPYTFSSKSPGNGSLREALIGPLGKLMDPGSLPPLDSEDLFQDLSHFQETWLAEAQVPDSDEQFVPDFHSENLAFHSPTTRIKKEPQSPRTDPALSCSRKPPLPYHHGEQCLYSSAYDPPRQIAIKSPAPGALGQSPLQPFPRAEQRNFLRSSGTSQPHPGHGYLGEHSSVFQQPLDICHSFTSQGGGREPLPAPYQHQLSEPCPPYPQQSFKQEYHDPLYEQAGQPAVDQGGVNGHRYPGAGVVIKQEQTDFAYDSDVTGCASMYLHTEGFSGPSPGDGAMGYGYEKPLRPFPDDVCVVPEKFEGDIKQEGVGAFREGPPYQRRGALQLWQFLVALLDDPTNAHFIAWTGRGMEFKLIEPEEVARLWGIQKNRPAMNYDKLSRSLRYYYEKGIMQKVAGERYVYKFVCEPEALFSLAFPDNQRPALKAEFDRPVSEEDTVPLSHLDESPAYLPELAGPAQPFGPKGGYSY
UniProt P08047: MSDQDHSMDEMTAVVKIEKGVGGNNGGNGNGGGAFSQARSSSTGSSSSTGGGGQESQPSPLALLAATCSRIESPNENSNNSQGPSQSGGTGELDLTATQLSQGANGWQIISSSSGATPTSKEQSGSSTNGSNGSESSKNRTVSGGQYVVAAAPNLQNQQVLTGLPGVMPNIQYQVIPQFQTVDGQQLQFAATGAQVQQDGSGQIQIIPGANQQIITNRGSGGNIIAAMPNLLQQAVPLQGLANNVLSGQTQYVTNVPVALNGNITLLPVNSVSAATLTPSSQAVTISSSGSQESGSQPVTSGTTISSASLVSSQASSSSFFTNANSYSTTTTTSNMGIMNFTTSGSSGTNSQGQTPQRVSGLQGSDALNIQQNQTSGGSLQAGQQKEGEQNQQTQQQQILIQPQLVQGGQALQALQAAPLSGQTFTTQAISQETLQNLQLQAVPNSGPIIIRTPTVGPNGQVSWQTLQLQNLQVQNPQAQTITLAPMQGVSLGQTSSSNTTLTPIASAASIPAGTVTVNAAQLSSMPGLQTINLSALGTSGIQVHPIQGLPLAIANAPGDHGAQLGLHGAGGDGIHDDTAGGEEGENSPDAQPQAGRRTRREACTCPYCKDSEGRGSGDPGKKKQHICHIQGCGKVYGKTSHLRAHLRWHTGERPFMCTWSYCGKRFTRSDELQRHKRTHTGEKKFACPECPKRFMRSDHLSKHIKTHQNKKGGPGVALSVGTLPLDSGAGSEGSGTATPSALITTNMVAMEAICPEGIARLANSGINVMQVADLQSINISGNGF

T1: His-tagged human TFPI-2 (human) (UniProt P48307)
T1 sequence: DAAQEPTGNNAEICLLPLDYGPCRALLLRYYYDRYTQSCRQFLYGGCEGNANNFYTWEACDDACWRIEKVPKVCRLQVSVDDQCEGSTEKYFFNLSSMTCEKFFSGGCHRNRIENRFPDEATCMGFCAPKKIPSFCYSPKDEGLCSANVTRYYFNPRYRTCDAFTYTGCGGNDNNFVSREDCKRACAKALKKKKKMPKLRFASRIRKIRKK


Columns and labels:
[1] = target: T1, His-tagged human TFPI-2 (human); experiment: co-IP; Protein A beads conjugated with TFPI-2 antibodies or normal IgG; nuclear extracts of MDA231/TFPI-2 cells; on ice for 4 hrs; western blots with anti-TFPI-2, anti-PEA3, anti-AP-2α and anti-SP1 antibodies
[2] = target: AP-2α (human (endogenous in MDA231)) (UniProt P05549); experiment: co-IP; reciprocal: Protein A beads conjugated with AP-2α antibodies or normal IgG; nuclear extracts of MDA231/TFPI-2 (and MDA231/con) cells; on ice for 4 hrs; western blots

Row | binding [1] | binding [2] | Molecule
1 | binds |  | AP-2α (from UniProt P05549 1-437)
2 | no binding |  | PEA3 (from UniProt P43268 1-484)
3 | no binding |  | SP1 (from UniProt P08047 1-785)
4 |  | binds | His-tagged human TFPI-2 (protein, UniProt P48307 23-233) DAAQEPTGNNAEICLLPLDYGPCRALLLRYYYDRYTQSCRQFLYGGCEGNANNFYTWEACDDACWRIEKVPKVCRLQVSVDDQCEGSTEKYFFNLSSMTCEKFFSGGCHRNRIENRFPDEATCMGFCAPKKIPSFCYSPKDEGLCSANVTRYYFNPRYRTCDAFTYTGCGGNDNNFVSREDCKRACAKALKKKKKMPKLRFASRIRKIRKK
